For at least one compound, name, drawing or mass did not settle the structure.
How the values were obtained:
C57/B6 mice in telogen = experiment: Anagen induction by topical treatment of shaved wildtype mice in telogen; type: in vivo, mouse; settings: half of dorsal back, treated three weeks
Text: It was hypothesized that inhibition of JAK-STAT signaling promotes entry into the hair cycle in mice. To determine the onset of anagen, backskin hairs were trimmed with an electric shaver, and entry of HF into anagen was observed by the appearance of darkening skin and by hair regrowth. For the hair cycle experiments described in FIG. 1A, biopsies were taken from 2 mice/time point, and the experiment was replicated on 3 sets of littermates. For the experiments described in supp. FIGS. 1C&D, 3-4 mice were used per group (7 week vs. 8.5 week), and the experiment was replicated 3 times. […] The experiment presented in FIG. 1E was independently replicated once, with 3 mice/condition. The experiments described in FIG. 2A, 3 mice/genotype were utilized, and the experiment was replicated in 2 sets of littermates.
Ruxolitinib (INCB018424) was purchased from ChemieTek (catalog number CT-INCB). […] Hedgehog agonist (SAG) was purchased from EMD Millipore (catalog number 566660). JAK-STAT inhibitors were dissolved in DMSO and used at 2-3% for in vivo experiments, as indicated, and 400 nM for in vitro experiments. SAG was used at 120 uM, as described in Paladini et al (2).

[1] = system: hair germ compartment (P-cad+); experiment: Hair germ proliferation (Ki67 / EdU) in treated mouse skin; type: in vivo
[2] = system: whole skin gene expression; experiment: Whole skin microarray / IPA pathway analysis after 4 days of treatment; type: in vivo, mouse; settings: 8.5-week-old mice
Description: Gene expression profiling was performed on whole skin biopsies from 12 B6/C57 female mice, 8.5 weeks of age. Biopsies were taken from dorsal skin at day 0 (T0) of the experiment. […] Quality control was performed using the affy analysisQC package from http://arrayanalysis.org/. […] Data were normalized using the GCRMA method as implemented in affyAnalysisQC. LIMMA was used with a multilevel model to identify genes that were differentially expressed between samples at T5 and T0 for each treatment group (DMSO, RUXO, and TOFA) using a threshold of fold change=1.5 and P<0.05.
Total RNA was extracted using the Qiagen RNAeasy micro kit. The Ovation RNA Amplification kit (Nugen) was used to generate amplified cDNA for microarray analysis. Arrays used were Affymetrix mouse 430 2.0, hybridized at the CUMC microarray facility. qPCR analysis was performed on the ABI 7300 cycler. Primers sequences available in Table 2.

[3] = system: human adult scalp hair follicles; experiment: Human hair follicle organ culture assay; type: cell-based
Description: Adult human follicles were microdissected from occipital skin under sterile conditions as previously described.
Media was replaced every 2 days, and images of individual follicles were taken every 2 days. Analysis of the growth rate of each follicle was performed using Image J.

human DP spheres = experiment: Patch assay with dermal papilla spheres; type: in vivo; settings: DP spheres treated at 400 nM
Description: DP cells were grown in spheres as previously described (35). […] Each hanging drop contained 1000 cells, which aggregated to form DP spheroids after 24 hours. 48 hours after plating, 500 spheres in each condition were collected for use in the patch assay. Each experiment was performed with cells derived from a single individual, and four separate experiments were conducted. Keratinocytes were isolated from new born mice following the protocol outlined by Lichti et al (63). Cells were cultured in dkSFM for 2-4 days prior to being harvested for the patch assay. 1×10^6 newborn murine keratinocytes were then mixed together with 500 human DP spheres in each condition, and injected subdermally into dorsal skin of a nude mouse. 12 days after performing the injections, cysts had developed in the dermis, some which contained HF and hair fibers. These cysts were collected, photographed and then digested in 0.35% collagenase. The digested slurries were spread onto microscope slides and hair fiber counts were manually performed under a stereo microscope.

[4] = system: human DP spheres gene expression; experiment: DP spheres microarray / GEDI / gene set enrichment analysis; type: cell-based; settings: vs control
Description: For the DP spheres microarray analysis, cells were prepared from three different donors, and Affymetrix human HG-U133 PLUS 2.0 arrays were hybridized at the CUMC genomics facility. Quality control and data normalization was performed as described above. For the organ culture experiment, 3 sets of repeats were performed, each times using HF derived from a single individual.
For the DP spheres microarray analysis, total RNA was extracted from DP spheres cultured in DMSO, ruxolitinib or tofacitinib from each of the three donors using the Qiagen RNAeasy micro kit. The Ovation RNA Amplification kit (Nugen) was used to generate amplified cDNA for microarray analysis. LIMMA was used with a linear model treating both treatment and the blocking factor, donor, as fixed effects. Contrasts of interest between treatments were used to identify genes that were differentially expressed between pairs of treatments for the treatments DMSO, RUXO, and TOFA. A threshold of absolute fold change=1.5 and P<0.05 was employed. […]
The gene set enrichment analysis comparing tofacitinib-treated and control cells was performed by generating a list of all detected transcripts ranked by differential expression (p-value), and direction of fold change (up or down). […]

OSM-Rβ = OSM-Rβ expression in mouse skin treated in vivo during telogen
Akt and ERK pathways = experiment: Akt and ERK pathway activation in skin treated in vivo; design: species or system mouse; settings: in vivo treatment, after STAT3/5 inhibition

## N#CC[C@H](C1CCCC1)n1cc(-c2ncnc3[nH]ccc23)cn1 [ruxolitinib]
C57/B6 mice in telogen
  re-entry into the hair cycle: rapid re-entry into the hair cycle, with kinetics similar to the Shh agonist
[1]; after three treatments, skin harvested 5 hours after treatment
  Edu+ cells within the hair germ (P-cadherin+) compartment: clearly visible
[1]; mice in telogen treated 4 days
  proliferation within the hair germ compartment (P-cad+): Significant proliferation
[2]; T5 vs T0
  expression of hair cycle regulators Shh and Prom1: significantly upregulated
  pathways enriched by only one of the drug treatments: mTOR and NfkB pathways
[2]; T5 vs T0, not in vehicle
  pathways enriched in both drug treatments (IPA): melanogenesis and the Wnt pathway were enriched
[3]; 400 nM, follicles from a single donor
  length of hair shafts / rate of hair elongation: significantly increased length of hair shafts
[3]; follicles from two individuals, did not reach statistical significance
  growth rate of anagen, repeat experiment: increased the growth rate of anagen
Human DP spheres
  inductivity of DP spheres: did not confer enhanced inductivity
[4]
  expression of FGFR1, ACVRL1, IGFR1, OSMR and PTGFR (region 1): repressed
  expression of pro-apoptotic genes BAX, BCL2L11 and CASP12 (region 2): upregulated
OSM-Rβ; telogen mouse skin, after 3 days
  OSM-Rβ expression in sorted keratinocytes: downregulation
OSM-Rβ; whole skin biopsies daily over 5 days of treatment
  OSM-Rβ expression, qRT-PCR: Downregulation
Akt and ERK pathways
  Akt and ERK pathways: activation
